Experiment: Skin penetration test (Franz cell)
Format: in vitro ADME
Details: patch with vs without lidocaine free base, pig skin, up to 42 hr

## CCN(CC)CC(=O)Nc1c(C)cccc1C [lidocaine]
  Effect on skin penetration of tolterodine: effective in promoting the skin penetration of tolterodine

— US8809401B2, “Composition with improved skin penetration for transdermal delivery of tolterodine” (priority 2010, dated 2014)
